Assay results from patent US20240327454A1, “DETERGENT AND METHOD FOR PURIFYING A BIOTHERAPEUTIC” (MEDIMMUNE, LLC, priority 2020, published 2024).

Tests used:
[1] = Endotoxin clearance from Lysozyme solution, detergent wash on cation exchange (SP Fast Flow); parameters: species or system E. coli; conditions: 1% detergent wash
[2] = Endotoxin clearance from mAb solution, detergent wash on protein-A affinity (MabSelectSuRe); parameters: species or system E. coli; conditions: 1% detergent wash
Host Cell Protein (HCP) [3] = experiment: HCP clearance, detergent spiked into cell harvest material before LambdaFabSelect column, HCP ELISA; parameters: species or system CHO
Host Cell Protein (HCP) [4] = experiment: HCP clearance, detergent wash on LambdaFabSelect column, HCP ELISA; parameters: species or system CHO; conditions: 1% detergent wash

In the case of `CCCCCCCCCCCCOCCOCCOCCOCCOCCOCCOCCOCCOCCO` [Laureth-9, 3,6,9,12,15,18,21,24,27-nonaoxanonatriacontan-1-ol], the Endotoxin ([1]; starting endotoxin 717) is reported as “below 1 EU/mg”.
In the case of `CCCCCCCCCCCCOCCOCCOCCOCCOCCOCCOCCOCCOCCO` [Brij L9, 3,6,9,12,15,18,21,24,27-nonaoxanonatriacontan-1-ol], the “Normalized Eluate Yield” value [2] is reported as 1.02, the Endotoxin ([2]; starting endotoxin 1911) is reported as “below 1 EU/mg” and the Endotoxin ([2]; starting endotoxin 1911, listed as Brij-L9) is reported as 0.88 EU/mg. For the same compound, the “Normalized Eluate Yield” value [1] was 0.8 and the Endotoxin ([1]; starting endotoxin 717, listed as Brij-L9) was 0.39 EU/mg.
In the case of Triton X-100 [reference compound], the HCP (Host Cell Protein (HCP) [3]; 2% detergent spike into cell harvest, LambdaFabSelect eluate) is reported as 1099 ng/mg, the “Normalized Eluate Yield” value (Host Cell Protein (HCP) [3]; 2% detergent spike, normalized to no detergent spike control) is reported as 1.0 and the HCP (Host Cell Protein (HCP) [4]; LambdaFabSelect eluate) is reported as 1856 ng/mg. For the same compound, the “Normalized Eluate Yield” value (Host Cell Protein (HCP) [4]; normalized to 0.5M NaCl wash control) was 1.00.
